Assay results published in article PMC2851570, “Distinct Roles of Hand2 in Initiating Polarity and Posterior Shh Expression during the Onset of Mouse Limb Bud Development” (PLoS Genetics, 2010).
These are yes or no findings as the source states them, for the method shown. Binding seen in cells or lysates may run through a third protein. Some binding calls cover weakened binding; strength is not graded here.

Chains of the proteins cited; added tags and fusions are not shown.
UniProt P70217: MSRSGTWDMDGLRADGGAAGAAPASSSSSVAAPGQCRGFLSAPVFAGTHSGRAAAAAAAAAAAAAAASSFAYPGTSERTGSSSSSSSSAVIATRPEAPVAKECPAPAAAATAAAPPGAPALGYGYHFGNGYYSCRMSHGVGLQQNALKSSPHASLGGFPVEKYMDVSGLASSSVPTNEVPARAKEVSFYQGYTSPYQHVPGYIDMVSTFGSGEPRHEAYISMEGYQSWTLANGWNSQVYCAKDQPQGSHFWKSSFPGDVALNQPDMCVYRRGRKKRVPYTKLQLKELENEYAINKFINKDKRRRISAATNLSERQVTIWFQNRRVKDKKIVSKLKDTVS

B1: Hand2, Flag-epitope tagged (natural protein, UniProt Q61039 1-217, looked up)
chain: MSLVGGFPHHPVVHHEGYPFAAAAAAAAAAAASRCSHEENPYFHGWLIGHPEMSPPDYSMALSYSPEYASGAAGLDHSHYGGVPPGAGPPGLGGPRPVKRRGTANRKERRRTQSINSAFAELRECIPNVPADTKLSKIKTLRLATSYIAYLMDLLAKDDQNGEAEAFKAEIKKTDVKEEKRKKELNEILKSTVSSNDKKTKGRTGWPQHVWALELKQ

Assays:
[1] = molecular target: Hoxd13 (mouse (endogenous in limb buds)) (UniProt P70217); test: co-IP; 50 wild-type mouse limb buds at E10.5; anti-Hoxd13 or control rabbit IgG antibodies covalently cross-linked to G protein beads; bound proteins detected by Western blotting with Hand2 antibodies
[2] = molecular target: Hoxd13 (expressed in transfected cells) (UniProt P70217); test: co-IP; transfected HEK293T cells; protein extracts immunoprecipitated with anti-Flag (Hand2), anti-Hoxd13 (Hoxd13) or anti-Myc (Gli3R) and immunoblotted with the appropriate antibodies

binding [1] | binding [2] | Molecule
binds |  | Hand2 (from UniProt Q61039 1-217)
 | binds | B1
